PubChem BioAssay AID1159578, Peter MacCallum Cancer Centre – 2015
In all, the deposit lists about 18,000 reagents; below is a random part of them. Of all reagents, about 1,030 (5.7%) are marked active. 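Inactive calls also include pools with fewer than 3300 nuclei, whose migration was not assessed.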 Raw values are not corrected between plates. A number with no mark means an inactive call.

Screen: 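Genome-wide hunt for genes controlling movement of lymphatic endothelial cells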 (primary screen)
Cell system: human lymphatic endothelial cells
Reagent: siRNA pool against human genes, 40 nM
Duration: 48 h after transfection
Detection: 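High-content imaging of dye-stained cells in a scratch assay measures filled wound area and nuclei per well; duplicate means given as ratio to mock and robust z-score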
Direction: migration robust z-score: higher = faster migration into the scratch; migration relative to mock: higher = more scratch area covered than mock; nuclei per well: higher = more cells in the well
Hit rule: 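Migration changed when robust z exceeds 2 or falls below -2 and mean nuclei number is at least 3300; otherwise not called changed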
Meaning of the calls: active = migration changed; inactive = no migration change, or too few cells

no.	gene knocked down	migration robust z-score	migration class with cell-count check	migration relative to mock	nuclei per well, duplicate mean
1	MBNL2 (muscleblind like splicing regulator 2)	-0.21	migration z between -2 and 2; enough cells	0.83	5496
2	PYGO2 (pygopus family PHD finger 2)	0.17	migration z between -2 and 2; enough cells	0.92	6371
3	DCPS (decapping enzyme, scavenger)	0.73	migration z between -2 and 2; enough cells	0.94	5434
4	SLC18B1	1.04	migration z between -2 and 2; enough cells	1.15	5912
5	VIPR1 (vasoactive intestinal peptide receptor 1)	-0.16	migration z between -2 and 2; enough cells	0.78	5771
6	PRKCD (protein kinase C delta)	-0.21	migration z between -2 and 2; enough cells	0.76	4676
7	CDC45 (cell division cycle 45)	-0.29	migration z between -2 and 2; enough cells	0.81	4296
8	ADAD1 (adenosine deaminase domain containing 1)	0.73	migration z between -2 and 2; enough cells	0.94	5779
9	SPRR2E (small proline rich protein 2E)	-0.44	migration z between -2 and 2; enough cells	0.77	5811

Single entries from the entries so far:
Entry of VIPR1 (vasoactive intestinal peptide receptor 1) under “migration class with cell-count check”: migration z between -2 and 2; enough cells
Value for CDC45 (cell division cycle 45) under “nuclei per well, duplicate mean”: 4296

The list goes on:
no.	gene knocked down	migration robust z-score	migration class with cell-count check	migration relative to mock	nuclei per well, duplicate mean
10	TM9SF1 (transmembrane 9 superfamily member 1)	0.5	migration z between -2 and 2; enough cells	1.02	5634
11	EXPH5 (exophilin 5)	-0.6	migration z between -2 and 2; enough cells	0.73	6832
12	MAN2A1 (mannosidase alpha class 2A member 1)	-0.28	migration z between -2 and 2; enough cells	0.75	5724
13	MUC17 (mucin 17, cell surface associated)	0.88	migration z between -2 and 2; enough cells	1.12	5906
14	AHDC1 (AT-hook DNA binding motif containing 1)	-0.18	migration z between -2 and 2; enough cells	0.84	6360
15	NEDD4 (NEDD4 E3 ubiquitin protein ligase)	1.19	migration z between -2 and 2; enough cells	1.03	5343
16	MINDY4 (MINDY lysine 48 deubiquitinase 4)	0.38	migration z between -2 and 2; enough cells	0.99	5799
17	ATP5MF (ATP synthase membrane subunit f)	1.94	migration z between -2 and 2; enough cells	1.38	6031
18	PPP1R12C (protein phosphatase 1 regulatory subunit 12C)	-0.9	migration z between -2 and 2; enough cells	0.63	5318
19	SYNE2 (spectrin repeat containing nuclear envelope protein 2)	-0.12	migration z between -2 and 2; enough cells	0.86	6244
20	VSTM2L (V-set and transmembrane domain containing 2 like)	1.54	migration z between -2 and 2; enough cells	1.29	6299
21	PIK3C2G	-0.76	migration z between -2 and 2; enough cells	0.66	4346
22	ST7L (suppression of tumorigenicity 7 like)	-1.14	migration z between -2 and 2; enough cells	0.59	5400
23	OR5D16 (olfactory receptor family 5 subfamily D member 16)	-0.19	migration z between -2 and 2; enough cells	0.84	7564
